Experimental data: the supplement of paper PMC12819154, “High-throughput peptide-centric local stability assay extends protein–ligand identification to membrane proteins, tissues and bacteria” (Nature Structural & Molecular Biology, 2025)
This is one part of the list. Most entries show no effect beyond the scatter of the controls.

By UniProt entry, the sequences of proteins in these tests, tags left out. Where a name states a change or a piece, a line headed by the entry shows the natural chain unless it says otherwise.
UniProt Q9WUU7: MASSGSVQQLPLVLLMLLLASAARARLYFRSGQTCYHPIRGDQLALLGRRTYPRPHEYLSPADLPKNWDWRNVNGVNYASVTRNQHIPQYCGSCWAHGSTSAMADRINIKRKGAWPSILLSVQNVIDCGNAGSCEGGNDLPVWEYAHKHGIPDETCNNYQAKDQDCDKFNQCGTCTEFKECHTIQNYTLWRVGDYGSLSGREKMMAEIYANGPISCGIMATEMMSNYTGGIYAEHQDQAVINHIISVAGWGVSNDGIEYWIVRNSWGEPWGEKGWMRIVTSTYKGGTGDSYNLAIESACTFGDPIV
UniProt Q9Z0X1, whole entry: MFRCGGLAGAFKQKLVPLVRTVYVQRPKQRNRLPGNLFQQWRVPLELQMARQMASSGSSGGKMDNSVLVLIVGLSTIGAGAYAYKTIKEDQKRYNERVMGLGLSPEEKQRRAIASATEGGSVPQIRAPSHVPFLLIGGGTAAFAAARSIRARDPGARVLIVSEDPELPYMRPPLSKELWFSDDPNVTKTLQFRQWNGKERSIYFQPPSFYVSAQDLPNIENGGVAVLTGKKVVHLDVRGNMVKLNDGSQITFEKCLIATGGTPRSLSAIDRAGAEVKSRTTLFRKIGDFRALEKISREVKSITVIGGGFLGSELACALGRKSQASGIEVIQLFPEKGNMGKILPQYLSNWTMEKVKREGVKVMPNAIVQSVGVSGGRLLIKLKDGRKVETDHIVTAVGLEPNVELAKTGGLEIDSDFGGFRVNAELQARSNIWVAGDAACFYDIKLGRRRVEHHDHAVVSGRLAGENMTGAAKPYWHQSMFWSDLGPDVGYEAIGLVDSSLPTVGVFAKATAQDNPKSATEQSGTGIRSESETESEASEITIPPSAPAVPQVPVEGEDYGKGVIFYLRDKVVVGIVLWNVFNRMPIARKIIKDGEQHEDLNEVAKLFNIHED
UniProt Q9Z315: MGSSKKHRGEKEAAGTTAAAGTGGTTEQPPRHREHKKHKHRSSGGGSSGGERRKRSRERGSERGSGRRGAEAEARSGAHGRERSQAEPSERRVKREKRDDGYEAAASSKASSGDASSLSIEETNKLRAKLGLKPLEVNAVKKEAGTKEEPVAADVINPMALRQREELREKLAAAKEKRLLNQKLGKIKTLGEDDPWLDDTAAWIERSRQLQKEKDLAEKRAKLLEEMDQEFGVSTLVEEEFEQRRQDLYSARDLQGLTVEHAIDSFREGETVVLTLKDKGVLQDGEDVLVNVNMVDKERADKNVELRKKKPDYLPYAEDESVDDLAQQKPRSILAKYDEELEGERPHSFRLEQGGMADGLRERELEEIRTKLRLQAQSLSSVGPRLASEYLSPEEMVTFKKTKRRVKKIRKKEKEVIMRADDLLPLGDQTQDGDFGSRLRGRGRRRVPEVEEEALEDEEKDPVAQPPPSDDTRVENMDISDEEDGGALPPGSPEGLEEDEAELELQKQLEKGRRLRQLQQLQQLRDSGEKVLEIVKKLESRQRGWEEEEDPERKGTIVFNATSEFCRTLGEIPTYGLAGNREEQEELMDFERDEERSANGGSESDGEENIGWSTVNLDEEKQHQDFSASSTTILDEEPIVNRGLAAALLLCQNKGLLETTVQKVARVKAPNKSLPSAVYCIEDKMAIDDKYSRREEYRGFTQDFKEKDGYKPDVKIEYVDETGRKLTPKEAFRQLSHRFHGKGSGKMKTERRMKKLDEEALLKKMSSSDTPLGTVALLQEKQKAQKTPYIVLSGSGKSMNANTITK
UniProt Q9WUL7: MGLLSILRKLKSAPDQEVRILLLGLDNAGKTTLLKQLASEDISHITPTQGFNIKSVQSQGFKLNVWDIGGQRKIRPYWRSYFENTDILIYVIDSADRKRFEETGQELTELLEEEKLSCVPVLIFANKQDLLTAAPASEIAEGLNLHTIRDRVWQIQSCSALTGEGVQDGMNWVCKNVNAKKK
UniProt Q9Z103: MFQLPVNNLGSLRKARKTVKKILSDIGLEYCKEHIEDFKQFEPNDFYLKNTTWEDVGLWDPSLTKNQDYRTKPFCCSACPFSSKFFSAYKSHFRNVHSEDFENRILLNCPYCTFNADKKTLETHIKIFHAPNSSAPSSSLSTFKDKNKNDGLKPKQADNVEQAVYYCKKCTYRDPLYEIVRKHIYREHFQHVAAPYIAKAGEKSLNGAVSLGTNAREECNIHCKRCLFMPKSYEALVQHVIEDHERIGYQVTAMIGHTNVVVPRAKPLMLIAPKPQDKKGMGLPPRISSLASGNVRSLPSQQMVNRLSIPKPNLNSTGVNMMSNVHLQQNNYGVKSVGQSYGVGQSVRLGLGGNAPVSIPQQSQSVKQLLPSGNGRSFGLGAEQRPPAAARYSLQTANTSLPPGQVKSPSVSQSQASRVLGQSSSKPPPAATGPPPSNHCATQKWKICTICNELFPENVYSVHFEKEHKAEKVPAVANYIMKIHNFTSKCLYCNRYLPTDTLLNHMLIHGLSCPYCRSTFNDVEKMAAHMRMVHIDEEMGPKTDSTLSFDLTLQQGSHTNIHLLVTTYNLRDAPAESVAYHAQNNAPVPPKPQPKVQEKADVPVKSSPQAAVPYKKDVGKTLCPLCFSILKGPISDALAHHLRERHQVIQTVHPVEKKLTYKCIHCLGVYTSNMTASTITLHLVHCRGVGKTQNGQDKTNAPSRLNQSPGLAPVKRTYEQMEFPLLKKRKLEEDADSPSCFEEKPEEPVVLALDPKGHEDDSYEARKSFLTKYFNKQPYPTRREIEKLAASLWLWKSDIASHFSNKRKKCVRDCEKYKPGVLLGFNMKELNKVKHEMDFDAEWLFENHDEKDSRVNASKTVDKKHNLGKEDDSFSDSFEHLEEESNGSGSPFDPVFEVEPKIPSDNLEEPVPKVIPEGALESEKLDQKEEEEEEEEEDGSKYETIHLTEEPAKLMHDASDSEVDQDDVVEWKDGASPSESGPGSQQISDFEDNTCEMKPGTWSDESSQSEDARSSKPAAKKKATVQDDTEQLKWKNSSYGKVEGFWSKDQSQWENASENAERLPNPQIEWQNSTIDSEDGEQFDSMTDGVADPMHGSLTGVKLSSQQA
UniProt Q9Z2G9: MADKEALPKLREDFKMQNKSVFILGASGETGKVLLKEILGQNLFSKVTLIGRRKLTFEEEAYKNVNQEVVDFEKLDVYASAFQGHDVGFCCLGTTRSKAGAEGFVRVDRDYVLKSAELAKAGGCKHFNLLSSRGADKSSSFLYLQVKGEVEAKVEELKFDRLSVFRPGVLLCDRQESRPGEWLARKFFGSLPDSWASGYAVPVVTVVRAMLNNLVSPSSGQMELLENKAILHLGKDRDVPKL
UniProt Q9R0H0: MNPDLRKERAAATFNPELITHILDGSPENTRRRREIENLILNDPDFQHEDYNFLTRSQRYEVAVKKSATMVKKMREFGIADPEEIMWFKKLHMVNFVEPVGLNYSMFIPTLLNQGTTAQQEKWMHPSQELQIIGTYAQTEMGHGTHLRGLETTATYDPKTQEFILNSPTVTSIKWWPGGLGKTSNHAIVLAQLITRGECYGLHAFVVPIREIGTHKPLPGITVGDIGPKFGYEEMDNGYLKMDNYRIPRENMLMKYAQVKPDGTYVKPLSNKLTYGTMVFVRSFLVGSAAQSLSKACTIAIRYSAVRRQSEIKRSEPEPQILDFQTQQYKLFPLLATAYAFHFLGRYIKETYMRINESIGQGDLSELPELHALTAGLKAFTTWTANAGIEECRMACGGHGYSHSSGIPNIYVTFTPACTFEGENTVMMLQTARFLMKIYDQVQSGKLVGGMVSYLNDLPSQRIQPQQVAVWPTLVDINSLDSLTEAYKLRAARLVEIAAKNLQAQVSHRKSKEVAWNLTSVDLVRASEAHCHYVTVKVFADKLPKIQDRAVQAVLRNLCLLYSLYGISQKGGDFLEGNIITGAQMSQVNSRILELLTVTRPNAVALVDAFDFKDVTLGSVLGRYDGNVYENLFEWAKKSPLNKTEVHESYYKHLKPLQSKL
UniProt Q9Z2E1, whole entry: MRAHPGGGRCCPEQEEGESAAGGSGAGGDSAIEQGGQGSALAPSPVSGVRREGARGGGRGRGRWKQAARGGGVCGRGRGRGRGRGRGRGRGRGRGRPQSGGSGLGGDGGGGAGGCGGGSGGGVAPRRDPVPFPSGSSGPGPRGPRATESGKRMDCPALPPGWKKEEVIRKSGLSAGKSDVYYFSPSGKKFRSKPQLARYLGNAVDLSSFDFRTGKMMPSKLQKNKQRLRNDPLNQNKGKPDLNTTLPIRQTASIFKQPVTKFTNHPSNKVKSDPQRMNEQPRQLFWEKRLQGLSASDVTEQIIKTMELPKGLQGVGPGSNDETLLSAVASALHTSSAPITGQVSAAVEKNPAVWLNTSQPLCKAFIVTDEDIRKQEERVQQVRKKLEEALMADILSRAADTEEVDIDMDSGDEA
UniProt Q9Z266: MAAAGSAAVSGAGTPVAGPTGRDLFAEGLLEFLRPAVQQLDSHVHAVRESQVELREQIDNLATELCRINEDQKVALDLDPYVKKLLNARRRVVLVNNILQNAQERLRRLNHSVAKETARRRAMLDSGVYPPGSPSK
UniProt Q9R049, whole entry: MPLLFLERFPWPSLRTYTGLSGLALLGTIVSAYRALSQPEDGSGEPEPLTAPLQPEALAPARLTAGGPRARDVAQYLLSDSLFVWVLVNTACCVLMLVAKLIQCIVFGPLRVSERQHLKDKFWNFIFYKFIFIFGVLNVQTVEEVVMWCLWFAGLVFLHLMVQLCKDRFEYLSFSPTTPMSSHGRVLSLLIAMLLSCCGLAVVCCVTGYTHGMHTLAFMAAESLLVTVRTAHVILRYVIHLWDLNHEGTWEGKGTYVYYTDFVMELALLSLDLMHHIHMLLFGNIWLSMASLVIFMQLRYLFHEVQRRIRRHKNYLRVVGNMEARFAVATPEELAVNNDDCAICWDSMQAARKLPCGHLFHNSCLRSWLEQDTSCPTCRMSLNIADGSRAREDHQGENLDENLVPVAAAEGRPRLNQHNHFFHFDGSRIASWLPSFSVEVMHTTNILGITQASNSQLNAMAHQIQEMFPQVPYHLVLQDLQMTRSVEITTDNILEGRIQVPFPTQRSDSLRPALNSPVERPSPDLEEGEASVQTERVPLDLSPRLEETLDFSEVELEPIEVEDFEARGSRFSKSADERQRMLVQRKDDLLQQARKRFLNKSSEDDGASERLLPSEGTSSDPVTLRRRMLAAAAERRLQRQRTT
UniProt Q9QZQ8, whole entry: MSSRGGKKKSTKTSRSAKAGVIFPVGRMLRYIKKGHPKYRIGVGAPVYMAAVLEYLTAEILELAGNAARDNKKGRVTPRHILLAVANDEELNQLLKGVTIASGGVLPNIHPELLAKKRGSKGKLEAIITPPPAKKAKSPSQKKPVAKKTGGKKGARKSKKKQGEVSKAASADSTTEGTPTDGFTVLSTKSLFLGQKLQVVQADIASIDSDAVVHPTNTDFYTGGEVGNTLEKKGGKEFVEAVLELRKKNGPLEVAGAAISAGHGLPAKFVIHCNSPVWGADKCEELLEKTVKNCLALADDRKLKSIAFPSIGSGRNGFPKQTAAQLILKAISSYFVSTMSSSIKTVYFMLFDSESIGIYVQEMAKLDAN
UniProt Q9QYP6, whole entry: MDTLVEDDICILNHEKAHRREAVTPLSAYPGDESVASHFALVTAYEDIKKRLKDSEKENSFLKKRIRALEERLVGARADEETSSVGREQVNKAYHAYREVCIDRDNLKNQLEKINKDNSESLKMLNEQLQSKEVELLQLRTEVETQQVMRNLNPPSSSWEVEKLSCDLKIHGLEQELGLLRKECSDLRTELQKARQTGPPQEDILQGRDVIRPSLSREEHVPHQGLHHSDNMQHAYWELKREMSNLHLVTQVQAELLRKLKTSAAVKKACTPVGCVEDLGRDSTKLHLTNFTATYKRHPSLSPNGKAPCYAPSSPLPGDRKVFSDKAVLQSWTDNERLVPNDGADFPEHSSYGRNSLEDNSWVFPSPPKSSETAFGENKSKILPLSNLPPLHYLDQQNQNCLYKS
UniProt Q9QZD8: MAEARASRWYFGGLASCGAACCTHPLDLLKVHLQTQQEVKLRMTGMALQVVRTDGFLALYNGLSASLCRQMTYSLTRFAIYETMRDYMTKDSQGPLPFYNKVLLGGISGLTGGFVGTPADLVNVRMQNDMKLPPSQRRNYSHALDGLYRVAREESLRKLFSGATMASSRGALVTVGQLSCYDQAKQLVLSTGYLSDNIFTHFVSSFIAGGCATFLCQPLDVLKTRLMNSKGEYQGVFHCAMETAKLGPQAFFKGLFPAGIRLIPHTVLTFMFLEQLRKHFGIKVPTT
UniProt Q9WV03: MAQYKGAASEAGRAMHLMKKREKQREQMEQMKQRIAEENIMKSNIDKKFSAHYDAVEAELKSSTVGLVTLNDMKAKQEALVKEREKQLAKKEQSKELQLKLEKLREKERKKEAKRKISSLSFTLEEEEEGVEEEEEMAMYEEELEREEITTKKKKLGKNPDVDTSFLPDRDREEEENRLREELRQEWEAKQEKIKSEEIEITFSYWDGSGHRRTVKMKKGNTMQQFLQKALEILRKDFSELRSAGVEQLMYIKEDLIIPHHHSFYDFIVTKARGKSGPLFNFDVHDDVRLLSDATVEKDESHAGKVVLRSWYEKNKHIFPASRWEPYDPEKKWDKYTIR

compound: CN[C@@H]1C[C@H]2O[C@@](C)([C@@H]1OC)n1c3ccccc3c3c4c(c5c6ccccc6n2c5c31)C(=O)NC4 [staurosporine]; test: log2 fold change of pooled soluble protein (PISA), ligand vs vehicle (log2 ratio); higher = more thermally stabilized; details: ligand concentration: 20 uM; assay format: PISA pool 52.9/55.5/58.6 C

Row | Target | log2 fold change of pooled soluble protein
1 | UniProt Q9R1P1 | 0.174
2 | UniProt Q9WUU7 | -0.0361
3 | UniProt Q9Z0X1 | -0.0037
4 | UniProt Q9R020 | 0.0763
5 | UniProt Q9Z0F8 | 0.284
6 | UniProt Q9WV02 | 0.152
7 | UniProt Q9WUZ9 | -0.045
8 | UniProt Q9Z2D6 | 0.133
9 | UniProt Q9WUP7 | 0.0349
10 | UniProt Q9Z315 | 0.0254
11 | UniProt Q9R0Q4 | 0.0384
12 | UniProt Q9R099 | 0.0851
13 | UniProt Q9Z1D1 | -0.025
14 | UniProt Q9Z0P5 | 0.0383
15 | UniProt Q9WVR4 | 0.203
16 | UniProt Q9WV32 | 0.129
17 | UniProt Q9WUL7 | -0.0832
18 | UniProt Q9Z0V7 | 0.0432
19 | UniProt Q9Z103 | 0.0216

Looked up one by one from the entries so far, 2 records:
Row | Target | log2 fold change of pooled soluble protein
17 | UniProt Q9WUL7 | -0.0832
1 | UniProt Q9R1P1 | 0.174

The list continues:

Row | Target | log2 fold change of pooled soluble protein
20 | UniProt Q9R0Q9 | 0.242
21 | UniProt Q9Z2G9 | 0.107
22 | UniProt Q9R1Z8 | 0.0453
23 | UniProt Q9R0H0 | -0.0121
24 | UniProt Q9Z2E1 | -0.0623
25 | UniProt Q9Z1R4 | -0.106
26 | UniProt Q9Z266 | -0.0104
27 | UniProt Q9WUK2 | -0.126
28 | UniProt Q9QZE5 | 0.108
29 | UniProt Q9R1K9 | 0.0411
30 | UniProt Q9Z0N1 | -0.0477
31 | UniProt Q9R049 | -0.0378
32 | UniProt Q9QZQ8 | 0.0167
33 | UniProt Q9QYP6 | -0.254
34 | UniProt Q9QZS3 | 0.0913
35 | UniProt Q9QZD8 | -0.165
36 | UniProt Q9WV03 | 0.0887
37 | UniProt Q9Z0G9 | 0.217
38 | UniProt Q9QYR9 | -0.00137
